Test results as given in article PMC8362126, “Proteolysis Targeting Chimera (PROTAC) for Macrophage Migration Inhibitory Factor (MIF) Has Anti‐Proliferative Activity in Lung Cancer Cells” (Angewandte Chemie (International Ed. in English), 2021).
Certain results were filed several times, with different values. This list holds those alone. The source may hold further records. Values given together do not match, cause unknown; some may be repeats, others may stem from another dose, organism or construct than stated.

Amino acid sequences for entries named in this document (tags omitted). Residues count along the entry.
UniProt P14174, 2-115 limits assumed: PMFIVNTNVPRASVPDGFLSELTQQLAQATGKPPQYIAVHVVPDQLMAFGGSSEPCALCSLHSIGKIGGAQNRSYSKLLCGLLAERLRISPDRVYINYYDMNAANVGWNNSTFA

Target: MIF (Homo sapiens, UniProt P14174)
Assay: MIF degradation in A549 cells, cell lysate-based ELISA
Conditions: 12 h, vs DMSO, mean±SD n=3
Method: In addition, A549 cells have been successfully used for assessing activity of cereblon ligand‐based PROTACs previously.[42] Therefore, A549 is a suitable cell line for evaluating the effect of our putative MIF‐directed PROTACs MD1 to MD12 on MIF protein levels. The reduction in MIF levels were monitored in A549 cells that were treated with two different PROTAC concentrations (20 and 2 μM) for 12 h in order to estimate the dose dependency, which is important for PROTACs because of the Hook effect.[35] The MIF levels in cell lysates were analyzed using an enzyme‐linked immunosorbent assay (ELISA).
S3. ELISA screening of MIF protein level on MIF-directed PROTACs
Cell culture. Human A549 lung cancer cells (ATCCCCL-185) or HEK293 kidney […]
containing 10% (v/v) fetal bovine serum (FBS), 100 U/mL penicillin/streptomycin […]
ELISA. 7×10^5 A549 cells per well were plated in 6-well plates. The next day, cells were treated with a solution of compounds or the vehicle for 12 h. Subsequently, the culture medium was removed and cells were washed twice with cold PBS and collected after trypsin (0.5 mL) degestion. […] The total protein concentration was determined with PierceTM BCA protein assay kit ( ThermoFisher , #23225). […] The relative MIF levels from 1µg total protein were determined by ELISA with the human MIF DuoSet ELISA kit according to the instructions of the manufacturer (R&D systems, #DY289). […]

## O=C1CCC(N2C(=O)c3cccc(NCc4cn(CCC(=O)Nc5ccc(N6Cc7ccc(O)cc7OC6=O)cc5)nn4)c3C2=O)C(=O)N1 (stereo not shown) [MD10]
  degradation (%) 20 µM: 61±14% and more than 50%
